## Assay results

Data taken from PubChem BioAssay AID1159506, deposited by NCATS (2015).

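Luminescence from an EWS-FLI1 target-promoter (NR0B1) reporter, set against a CMV-promoter reporter, two days after silencing single genes in TC32 Ewing sarcoma cells. Each siRNA was applied at 20 nM. A z-score of the log NR0B1-over-CMV signal, less the median of siRNAs with the same seed; more negative means a stronger specific loss of the NR0B1 reporter.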

The strongest results of the screen are mostly left out here. Sequences are the guide (antisense) strand, without overhang.

Sequence: UACAGAUUGUCGUCGGUGG
target gene: ATP4A
seed-corrected z-score: 0.06224

Sequence: UCAGGUAGAAGGUUUUUCC
target gene: ZNF12
seed-corrected z-score: -0.175

Sequence: ACAUGGUUUGGUAAUAGUC
target gene: P3H1
seed-corrected z-score: 0.3761

Sequence: UGACUUUCCAUGUCCUGCC
target gene: SPATA13
seed-corrected z-score: 0.1305

Sequence: UGUUGAUCUGAUGCAUUCG
target gene: UBA2
seed-corrected z-score: -1.792

Sequence: AUAUUGUCAAAGUCAUUGG
target gene: PTPRQ
seed-corrected z-score: 0.2492

Sequence: UCUCUCAACAUGCCCAUCC
target gene: NUDT9
seed-corrected z-score: 0.5734

Sequence: UUUACUCGCAUCUGAAUUC
target gene: RFX6
seed-corrected z-score: -0.7251

Sequence: UUCUGAAGUAGCAAUAACU
target gene: CX3CR1
seed-corrected z-score: 0.1325

Sequence: UCCGGUACUGUAAUUGUGG
target gene: FAM161A
seed-corrected z-score: 0.1485

Sequence: UGUUGAGCAUGAGCUAUAC
target gene: CCNYL1
seed-corrected z-score: 0.983

Sequence: UUCAUUGCUUUAUUUGUCC
target gene: SCGB3A2
seed-corrected z-score: 0.1582

Sequence: UGAAUCGACGCAGUAAUCC
target gene: ETV5
seed-corrected z-score: 0.1631

Sequence: CCACAUUCGAACCUGUGCC
target gene: IQCF6
seed-corrected z-score: 0.6252

Sequence: AUAUCCUUCUGUGAUAUCC
target gene: ANXA4
seed-corrected z-score: 0.2476

Sequence: UGCCAGAUCAGGGAAACAG
target gene: ETV2
seed-corrected z-score: 0.2227

Sequence: AAACUUAGCAGUGAGUGUC
target gene: KIF21B
seed-corrected z-score: 0.009774

Sequence: AUUCUCUUCAUCGCUAUCU
target gene: SREK1IP1
seed-corrected z-score: -1.099

Sequence: UAAAGUACCAGAAGCAAUA
target gene: TMEM216
seed-corrected z-score: 1.206

Sequence: UUUCGCUAAUGAUUCUGCC
target gene: SNAPC1
seed-corrected z-score: 0.9709

Sequence: AUGGGAAACCGACCAGACC
target gene: LINC00152
seed-corrected z-score: -0.2858

Sequence: UCACUGGGAAGCACUCUGC
target gene: JRK
seed-corrected z-score: 0.006569

Sequence: AACGAUGAAAGAUUAAUCG
target gene: NPHP3
seed-corrected z-score: 0.5197

Sequence: UCAGGGACCUUGGUGUAGC
target gene: SPRR3
seed-corrected z-score: -0.8661

Sequence: UUAGGGUACUGUAUAAGCC
target gene: LAMTOR1
seed-corrected z-score: 0.1068

Sequence: UAAUCGUCUCUUCAUCUGG
target gene: DOPEY1
seed-corrected z-score: -0.04732

Sequence: ACACUGUAGAGUAUGCUCU
target gene: ANKRD33
seed-corrected z-score: 0.9797

Sequence: UAGAGAUUAAAGACAGUCG
target gene: HADHB
seed-corrected z-score: 1.303

Sequence: UAAAUCUUAUGGUCUUUGC
target gene: KAT8
seed-corrected z-score: 0.1208

Sequence: UCAUACUCUAUCAAGAGCC
target gene: WDR66
seed-corrected z-score: 0.6489

Sequence: UUGAGUACAAAAUCGAAUG
target gene: PER3
seed-corrected z-score: 0.6348

Sequence: UACCAGUACACUUUCCCUU
target gene: MMP23B
seed-corrected z-score: -0.8886

Sequence: UGUUUUCCAUCAGGUACCG
target gene: TMC6
seed-corrected z-score: 0.4715

Sequence: UGUUUGGUCUUCAUAAGCC
target gene: AK3
seed-corrected z-score: -0.006071

Sequence: UCGGAGUCAGAAGCAAUCC
target gene: ELK3
seed-corrected z-score: -0.1314

Sequence: UUGCAUACAAGUCUAGAUG
target gene: ATP10B
seed-corrected z-score: 0.3629

Sequence: ACUAUUGUAAUCAUAAUGC
target gene: HTR1F
seed-corrected z-score: -0.3134

Sequence: ACCUCGGUAAGGUAAAUCG
target gene: GAPT
seed-corrected z-score: -0.2944

Sequence: UAAAAAGCAAACUAAAUGA
target gene: RPSA
seed-corrected z-score: 0.9338

Sequence: UUUAUUUUCAGCCCUUGAG
target gene: S100A6
seed-corrected z-score: -0.4716

Sequence: UCUGGUGCUCCUGAGAACC
target gene: OASL
seed-corrected z-score: -0.4193

Sequence: UUUUGGGCAAAUACUUUCU
target gene: AGR3
seed-corrected z-score: 0.8566

Sequence: UUUGACAAAGGCCUCUUCC
target gene: LOC646522
seed-corrected z-score: 0.1323

Sequence: AAUACGUAAACAGUGAUUC
target gene: ADCY5
seed-corrected z-score: 0.8843

Sequence: UCGAUACUCAAACUCCUCG
target gene: CKS1B
seed-corrected z-score: -0.06155

Sequence: UACGGUUGCAUUCUCUGCC
target gene: WNT16
seed-corrected z-score: -0.2673

Sequence: UAAGUUUUAUUGCCUUCCC
target gene: TAAR9
seed-corrected z-score: -0.618

Sequence: AGGGAUCACAGAACUCUGG
target gene: PNPO
seed-corrected z-score: -0.1799

Sequence: UUUUGCUGUACAAGUCCCU
target gene: APOC2
seed-corrected z-score: -1.289

Sequence: UUCCCGAAUAUCUUCUUCC
target gene: MYBL1
seed-corrected z-score: -0.43

Sequence: AAUGCUCUCAUACAAAUUC
target gene: CYTH3
seed-corrected z-score: 0.1717

For reference, 4 entries once more:

* UUUACUCGCAUCUGAAUUC against RFX6 : seed-corrected z-score -0.7251
* UAAGUUUUAUUGCCUUCCC against TAAR9 : seed-corrected z-score -0.618
* UUUUGCUGUACAAGUCCCU against APOC2 : seed-corrected z-score -1.289
* UUAGGGUACUGUAUAAGCC against LAMTOR1 : seed-corrected z-score 0.1068